From article doi:10.1101/760389 (bioRxiv, 2019)
No constants are given. Whether binding was seen depends on the method and setting. Binding can be weak; no strength is given. For some assays here: Sequences can lack the tags named with a protein. For some assays here: In cells and extracts the contact can be indirect.

B1: FRA1-AA, phosphodefective FRA1 C-terminal region (T687A-T694A) (domain or fragment, UniProt Q8GS71 616-1035)
chain: ARRLQDEIQSIKAQKVQLQHRMKQEAEQFRQWKASREKELLQLRKEGRKSEYERHKLQALNQRQKMVLQRKAEEAAMAAKRLKELLEARKSSPREHSAGTNGFGTNGQTNEKSLQRWLDHELEVMVNVHEVRHEYEKQSHVRAALAEELAVLRQVDEFAVKGLSPPRGKNGFARASSLSPNARMARISSLENMLVISSNSLVAMASQLSEAEERERAFTNRGRWNQLRSMGEAKNLLQYMFNSLAETRCQLWEKDVEIKEMKDQFKEIVGLLRQSELRRKEAEKELKLREQAIATSLGTPPSSVKHVAEDLSTPSPMTVPAQKQLKFTPGIANGKVRGPAAFLDTNKKMVPMGQVSMRKLSAVGKQGGRLWRWKRSHHQWIVQFKWKWQKPWRLSEWIRTSDETLLKSKPRLKALPNKIM
B2: FRA1-DD, phosphomimetic FRA1 C-terminal region (T687D-T694D) (domain or fragment, UniProt Q8GS71 616-1035)
chain: ARRLQDEIQSIKAQKVQLQHRMKQEAEQFRQWKASREKELLQLRKEGRKSEYERHKLQALNQRQKMVLQRKDEEAAMADKRLKELLEARKSSPREHSAGTNGFGTNGQTNEKSLQRWLDHELEVMVNVHEVRHEYEKQSHVRAALAEELAVLRQVDEFAVKGLSPPRGKNGFARASSLSPNARMARISSLENMLVISSNSLVAMASQLSEAEERERAFTNRGRWNQLRSMGEAKNLLQYMFNSLAETRCQLWEKDVEIKEMKDQFKEIVGLLRQSELRRKEAEKELKLREQAIATSLGTPPSSVKHVAEDLSTPSPMTVPAQKQLKFTPGIANGKVRGPAAFLDTNKKMVPMGQVSMRKLSAVGKQGGRLWRWKRSHHQWIVQFKWKWQKPWRLSEWIRTSDETLLKSKPRLKALPNKIM
B3: FRA1-CT (amino acids 616-1035) fused with the activation domain (AD) (domain or fragment, UniProt Q8GS71 616-1035)
chain: ARRLQDEIQSIKAQKVQLQHRMKQEAEQFRQWKASREKELLQLRKEGRKSEYERHKLQALNQRQKMVLQRKTEEAAMATKRLKELLEARKSSPREHSAGTNGFGTNGQTNEKSLQRWLDHELEVMVNVHEVRHEYEKQSHVRAALAEELAVLRQVDEFAVKGLSPPRGKNGFARASSLSPNARMARISSLENMLVISSNSLVAMASQLSEAEERERAFTNRGRWNQLRSMGEAKNLLQYMFNSLAETRCQLWEKDVEIKEMKDQFKEIVGLLRQSELRRKEAEKELKLREQAIATSLGTPPSSVKHVAEDLSTPSPMTVPAQKQLKFTPGIANGKVRGPAAFLDTNKKMVPMGQVSMRKLSAVGKQGGRLWRWKRSHHQWIVQFKWKWQKPWRLSEWIRTSDETLLKSKPRLKALPNKIM
B4: FRA1 C-terminal tail fragment (amino acids 616-1035), C-terminal 6xHis fusion (domain or fragment, Arabidopsis thaliana, UniProt Q8GS71 616-1035, looked up)
chain: ARRLQDEIQSIKAQKVQLQHRMKQEAEQFRQWKASREKELLQLRKEGRKSEYERHKLQALNQRQKMVLQRKTEEAAMATKRLKELLEARKSSPREHSAGTNGFGTNGQTNEKSLQRWLDHELEVMVNVHEVRHEYEKQSHVRAALAEELAVLRQVDEFAVKGLSPPRGKNGFARASSLSPNARMARISSLENMLVISSNSLVAMASQLSEAEERERAFTNRGRWNQLRSMGEAKNLLQYMFNSLAETRCQLWEKDVEIKEMKDQFKEIVGLLRQSELRRKEAEKELKLREQAIATSLGTPPSSVKHVAEDLSTPSPMTVPAQKQLKFTPGIANGKVRGPAAFLDTNKKMVPMGQVSMRKLSAVGKQGGRLWRWKRSHHQWIVQFKWKWQKPWRLSEWIRTSDETLLKSKPRLKALPNKIM
B5: FRA1 kinesin, endogenous full-length protein (protein, UniProt Q8GS71 1-1035)
chain: MESTPPPDDCSVKVAVHIRPLIGDERIQGCQDCVTVVTGKPQVQIGSHSFTFDHVYGSSGSPSTEMYEECAAPLVDGLFQGYNATVLAYGQTGSGKTYTMGTGCGDSSQTGIIPQVMNALFTKIETLKQQIEFQIHVSFIEIHKEEVQDLLDPCTVNKSDTNNTGHVGKVAHVPGKPPIQIRETSNGVITLAGSTEVSVSTLKEMAACLDQGSVSRATGSTNMNNQSSRSHAIFTITVEQMRKINTDSPENGAYNGSLKEEYLCAKLHLVDLAGSERAKRTGSDGLRFKEGVHINKGLLALGNVISALGDEKKRKDGAHVPYRDSKLTRLLQDSLGGNSRTVMIACISPADINAEETLNTLKYANRARNIRNKPVVNRDPVSSEMLKMRQQVEYLQAELSLRTGGSSCAEVQALKERIVWLETANEELCRELHEYRSRCPGVEHSEKDFKDIRADDIVGSVRPDGLKRSLHSIESSNYPMVEATTGDSREIDEEAKEWEHKLLQNSMDKELYELNRRLEEKESEMKLFDGYDPAALKQHFGKKIAEVEDEKRSVQEERNRLLAEIENLASDGQAQKLQDVHAQNLKALEAQILDLKKKQESQVQLLKQKQKSDDAARRLQDEIQSIKAQKVQLQHRMKQEAEQFRQWKASREKELLQLRKEGRKSEYERHKLQALNQRQKMVLQRKTEEAAMATKRLKELLEARKSSPREHSAGTNGFGTNGQTNEKSLQRWLDHELEVMVNVHEVRHEYEKQSHVRAALAEELAVLRQVDEFAVKGLSPPRGKNGFARASSLSPNARMARISSLENMLVISSNSLVAMASQLSEAEERERAFTNRGRWNQLRSMGEAKNLLQYMFNSLAETRCQLWEKDVEIKEMKDQFKEIVGLLRQSELRRKEAEKELKLREQAIATSLGTPPSSVKHVAEDLSTPSPMTVPAQKQLKFTPGIANGKVRGPAAFLDTNKKMVPMGQVSMRKLSAVGKQGGRLWRWKRSHHQWIVQFKWKWQKPWRLSEWIRTSDETLLKSKPRLKALPNKIM

Legend:
[1] = molecular target: MBP-CMU1 (Arabidopsis thaliana); test: pull-down
[2] = molecular target: MBP-CMU2 (Arabidopsis thaliana); test: pull-down
[3] = molecular target: Full-length CMU1 fused with the DNA binding domain (BD) (Arabidopsis thaliana); test: two-hybrid
[4] = molecular target: Full-length CMU2 fused with the DNA binding domain (BD) (Arabidopsis thaliana); test: two-hybrid
[5] = molecular target: MBP-CMU3 (Arabidopsis thaliana); test: pull-down
[6] = molecular target: mCherry-CMU2 (Arabidopsis thaliana); test: co-IP
[7] = molecular target: mCherry-CMU1 (Arabidopsis thaliana); test: co-IP

Binder | binding [1] | binding [2] | also measured
B1 | binds | binds | 
B2 | binds | binds | 
B3 |  |  | binding [3]: binds; binding [4]: binds
B4 | binds | binds | binding [5]: binds
B5 |  |  | binding [6]: binds; binding [7]: binds
